Laboratory results published in article PMC6588587.
Results are given in words; binding and its absence hold for the method and conditions named.

Sequences of proteins named here, by UniProt entry; tags and fusion partners are left off. Residues count along the entry.
UniProt P0CI27, residues 87-246: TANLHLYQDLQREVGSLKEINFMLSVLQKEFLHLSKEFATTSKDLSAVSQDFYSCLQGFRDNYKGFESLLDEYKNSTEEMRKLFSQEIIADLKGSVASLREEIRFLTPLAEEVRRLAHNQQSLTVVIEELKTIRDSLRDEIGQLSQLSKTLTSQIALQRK

Assays:
[1] = target: IncA_(87–246)-His6x (C. trachomatis) (UniProt P0CI27); assay: AUC; sedimentation velocity; IncA samples at 75 μM and 150 μM in 20 mM HEPES pH 7.5, 150 mM NaCl, 1 mM DTT, 45,000 rpm, 4 °C; c(s) distribution in SEDFIT; both purified
[2] = target: IncA_(87–246)-His6x (C. trachomatis) (UniProt P0CI27); assay: crystal structure; hanging drop, 0.2 M sodium acetate trihydrate pH 8.0, 20% PEG 3350; space group P2_(1), one copy in the asymmetric unit; 1.12 Å; both purified

Question: Which binding [1] does the source give for “IncA_(87–246)-His6x (from UniProt P0CI27 87-246) (domain or fragment)” here?
Answer: no binding (tested: 75 μM and 150 μM)

Question: What about the binding [2] of the same substance?
Answer: no binding
